The values that follow come from article PMC7235295.

Protein sequences, listed by entry. Tags and fused reporters are not part of them.
UniProt Q13148, whole entry: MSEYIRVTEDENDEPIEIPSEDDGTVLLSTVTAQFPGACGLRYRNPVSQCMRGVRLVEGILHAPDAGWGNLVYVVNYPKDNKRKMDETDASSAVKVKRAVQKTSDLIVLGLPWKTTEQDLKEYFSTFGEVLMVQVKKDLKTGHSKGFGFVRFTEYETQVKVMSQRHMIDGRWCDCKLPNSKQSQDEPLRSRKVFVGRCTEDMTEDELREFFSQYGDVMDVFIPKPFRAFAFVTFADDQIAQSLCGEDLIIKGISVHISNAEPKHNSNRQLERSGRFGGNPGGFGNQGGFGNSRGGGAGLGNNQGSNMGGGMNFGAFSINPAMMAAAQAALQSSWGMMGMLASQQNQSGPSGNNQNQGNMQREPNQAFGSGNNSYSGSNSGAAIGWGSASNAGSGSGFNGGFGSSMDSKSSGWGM

In the data set the target is TDP43 (denatured full-length, ab156345) (UniProt Q13148). Description: EMSA. As to conditions: denatured TDP43, up to 1.25 uM (Methods, legend prints mM); EMSA: 14 mM Tris pH 8.0, 35 mM KCl, 14 mM NaCl, 1.4 mM MgCl2, 14% glycerol, 0.7 mM DTT, 30 min RT, 5 nM RNA, gel at 4 C; commercial protein; residues 1-414; label: 5'-32P. A general note: A gel shift assay detects complexes by their altered migration in electrophoresis.

For at least one entry, the source does not settle the construct or the ends of the probe.

Consider “UGAGUGUGUGUGUGUGAGUGUGU [miR-574-5p (EMSA)]”, for which the binding result is “binds”.
